Laboratory results: article PMC12304000
These are yes or no findings as the source states them, for the method shown. In cells and extracts the contact can be indirect. Some entries that bind do so weakly or less than the wild type.

Protein sequences, listed by entry. Tags and fused reporters are not part of them. Residues count along the entry.
UniProt Q05397: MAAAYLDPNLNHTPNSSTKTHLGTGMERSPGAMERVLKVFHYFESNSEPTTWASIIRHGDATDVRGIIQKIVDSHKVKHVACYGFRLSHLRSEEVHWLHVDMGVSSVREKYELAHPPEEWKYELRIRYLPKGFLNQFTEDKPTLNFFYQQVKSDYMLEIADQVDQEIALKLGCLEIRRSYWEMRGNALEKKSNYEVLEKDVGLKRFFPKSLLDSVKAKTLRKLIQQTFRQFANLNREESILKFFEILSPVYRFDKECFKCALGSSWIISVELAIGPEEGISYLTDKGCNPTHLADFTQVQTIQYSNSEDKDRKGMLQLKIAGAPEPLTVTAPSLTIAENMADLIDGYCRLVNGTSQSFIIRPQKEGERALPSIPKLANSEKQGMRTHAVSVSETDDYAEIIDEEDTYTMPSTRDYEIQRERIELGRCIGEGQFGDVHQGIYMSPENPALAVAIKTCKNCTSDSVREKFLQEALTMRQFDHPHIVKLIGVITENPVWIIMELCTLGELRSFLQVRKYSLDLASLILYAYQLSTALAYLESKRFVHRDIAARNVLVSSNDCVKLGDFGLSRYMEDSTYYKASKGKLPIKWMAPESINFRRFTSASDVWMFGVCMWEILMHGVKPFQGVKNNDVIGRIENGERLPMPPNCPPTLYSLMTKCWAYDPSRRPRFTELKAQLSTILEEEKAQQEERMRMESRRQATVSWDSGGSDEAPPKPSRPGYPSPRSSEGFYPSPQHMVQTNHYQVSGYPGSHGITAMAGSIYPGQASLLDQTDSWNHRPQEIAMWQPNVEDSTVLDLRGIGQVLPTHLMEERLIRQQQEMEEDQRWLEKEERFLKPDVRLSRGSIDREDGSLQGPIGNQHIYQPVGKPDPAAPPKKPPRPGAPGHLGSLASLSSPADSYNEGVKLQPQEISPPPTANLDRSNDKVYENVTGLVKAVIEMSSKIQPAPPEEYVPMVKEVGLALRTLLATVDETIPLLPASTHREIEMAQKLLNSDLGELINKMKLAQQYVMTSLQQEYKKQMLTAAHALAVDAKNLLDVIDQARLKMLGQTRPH
UniProt P05412: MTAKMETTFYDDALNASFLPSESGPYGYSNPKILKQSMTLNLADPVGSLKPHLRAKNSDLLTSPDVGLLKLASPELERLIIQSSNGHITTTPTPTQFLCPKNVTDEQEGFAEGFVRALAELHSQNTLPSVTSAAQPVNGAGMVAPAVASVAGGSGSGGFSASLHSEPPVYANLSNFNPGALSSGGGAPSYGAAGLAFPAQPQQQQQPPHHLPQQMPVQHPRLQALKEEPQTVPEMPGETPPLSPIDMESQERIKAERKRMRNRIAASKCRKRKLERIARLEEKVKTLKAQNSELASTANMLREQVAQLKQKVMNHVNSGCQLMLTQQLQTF
UniProt Q9NZQ7, residues 19-290: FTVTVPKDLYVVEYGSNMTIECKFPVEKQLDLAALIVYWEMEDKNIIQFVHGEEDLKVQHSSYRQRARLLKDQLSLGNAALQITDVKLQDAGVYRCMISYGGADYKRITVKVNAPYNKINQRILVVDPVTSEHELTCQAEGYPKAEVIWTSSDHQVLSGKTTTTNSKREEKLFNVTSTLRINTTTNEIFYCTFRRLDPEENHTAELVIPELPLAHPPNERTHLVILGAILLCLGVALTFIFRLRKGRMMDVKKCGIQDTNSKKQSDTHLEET

Biological target: FAK (human (endogenous in CAFs)) (UniProt Q05397)
Experiment: co-IP; lysates of CAFs (CD248-overexpressing); commercial kit (Absin, #abs9649); primary antibody 1 h, then antibody-conjugated beads overnight at 4°C; anti-FAK antibody, rabbit IgG as control, 2 µg per mg of total protein; detection by blot

binding | Substance
binds | c-Jun (from UniProt P05412 1-331)
binds | PD-L1 (from UniProt Q9NZQ7 19-290) (ligand)
